Reference: the supplement of paper PMC10849652
The other results are listed elsewhere or left out.

Amino acid sequences for entries named in this document (tags omitted). A change or cut given only in a name is not applied to a line headed by its entry.
UniProt O75976: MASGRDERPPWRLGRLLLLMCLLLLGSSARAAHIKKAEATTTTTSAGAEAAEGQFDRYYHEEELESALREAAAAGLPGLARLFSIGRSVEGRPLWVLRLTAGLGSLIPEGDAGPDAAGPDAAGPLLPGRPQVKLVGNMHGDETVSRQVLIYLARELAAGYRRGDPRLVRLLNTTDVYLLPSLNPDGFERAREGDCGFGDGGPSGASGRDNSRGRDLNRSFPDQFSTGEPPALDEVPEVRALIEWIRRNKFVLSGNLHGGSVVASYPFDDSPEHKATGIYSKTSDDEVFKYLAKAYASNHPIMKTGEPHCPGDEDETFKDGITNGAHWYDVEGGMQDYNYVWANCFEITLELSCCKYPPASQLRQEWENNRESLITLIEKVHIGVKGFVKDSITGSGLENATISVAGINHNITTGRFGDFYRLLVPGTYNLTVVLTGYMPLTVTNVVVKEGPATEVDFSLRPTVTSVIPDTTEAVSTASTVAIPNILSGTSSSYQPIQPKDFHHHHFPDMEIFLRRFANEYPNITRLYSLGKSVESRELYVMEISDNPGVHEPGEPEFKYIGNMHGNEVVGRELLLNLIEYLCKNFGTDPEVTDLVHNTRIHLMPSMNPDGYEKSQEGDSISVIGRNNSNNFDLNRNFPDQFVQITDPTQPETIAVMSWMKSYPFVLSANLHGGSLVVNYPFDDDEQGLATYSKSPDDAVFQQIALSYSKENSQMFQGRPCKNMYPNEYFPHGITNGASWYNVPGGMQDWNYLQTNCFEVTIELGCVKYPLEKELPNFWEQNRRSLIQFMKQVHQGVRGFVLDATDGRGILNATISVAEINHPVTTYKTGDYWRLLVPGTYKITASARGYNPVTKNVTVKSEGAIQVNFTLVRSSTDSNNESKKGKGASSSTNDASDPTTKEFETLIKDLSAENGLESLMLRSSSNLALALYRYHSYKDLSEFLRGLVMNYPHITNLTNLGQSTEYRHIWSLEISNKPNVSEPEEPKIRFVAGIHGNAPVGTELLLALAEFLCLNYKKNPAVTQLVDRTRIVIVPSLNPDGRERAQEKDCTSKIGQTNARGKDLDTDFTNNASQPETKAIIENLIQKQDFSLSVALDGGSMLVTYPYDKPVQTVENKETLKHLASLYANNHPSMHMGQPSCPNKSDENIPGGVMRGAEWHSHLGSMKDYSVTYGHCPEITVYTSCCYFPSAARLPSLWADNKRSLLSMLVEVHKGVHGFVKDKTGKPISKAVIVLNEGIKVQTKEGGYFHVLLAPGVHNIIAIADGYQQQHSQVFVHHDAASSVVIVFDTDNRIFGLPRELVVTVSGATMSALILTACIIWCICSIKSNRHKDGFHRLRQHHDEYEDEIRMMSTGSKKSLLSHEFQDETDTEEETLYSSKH
UniProt P78560: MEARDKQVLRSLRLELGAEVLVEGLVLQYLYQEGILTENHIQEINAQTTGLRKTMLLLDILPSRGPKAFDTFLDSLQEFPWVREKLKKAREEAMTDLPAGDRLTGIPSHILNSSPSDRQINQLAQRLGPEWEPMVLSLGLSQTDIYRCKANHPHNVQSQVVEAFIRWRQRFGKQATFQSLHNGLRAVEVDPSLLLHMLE
UniProt Q5TA50: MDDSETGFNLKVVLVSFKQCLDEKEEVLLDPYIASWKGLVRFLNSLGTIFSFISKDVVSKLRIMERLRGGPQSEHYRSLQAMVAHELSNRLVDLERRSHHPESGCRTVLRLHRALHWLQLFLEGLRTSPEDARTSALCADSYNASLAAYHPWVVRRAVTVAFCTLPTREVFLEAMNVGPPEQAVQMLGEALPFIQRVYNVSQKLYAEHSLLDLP
UniProt Q99807: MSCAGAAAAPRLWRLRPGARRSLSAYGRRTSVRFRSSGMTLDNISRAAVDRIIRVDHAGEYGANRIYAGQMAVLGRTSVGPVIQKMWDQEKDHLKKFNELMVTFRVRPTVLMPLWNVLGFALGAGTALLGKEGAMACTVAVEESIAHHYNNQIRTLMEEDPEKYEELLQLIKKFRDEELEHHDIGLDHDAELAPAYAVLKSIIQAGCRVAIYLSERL
UniProt Q9ULM6, whole entry, looked up: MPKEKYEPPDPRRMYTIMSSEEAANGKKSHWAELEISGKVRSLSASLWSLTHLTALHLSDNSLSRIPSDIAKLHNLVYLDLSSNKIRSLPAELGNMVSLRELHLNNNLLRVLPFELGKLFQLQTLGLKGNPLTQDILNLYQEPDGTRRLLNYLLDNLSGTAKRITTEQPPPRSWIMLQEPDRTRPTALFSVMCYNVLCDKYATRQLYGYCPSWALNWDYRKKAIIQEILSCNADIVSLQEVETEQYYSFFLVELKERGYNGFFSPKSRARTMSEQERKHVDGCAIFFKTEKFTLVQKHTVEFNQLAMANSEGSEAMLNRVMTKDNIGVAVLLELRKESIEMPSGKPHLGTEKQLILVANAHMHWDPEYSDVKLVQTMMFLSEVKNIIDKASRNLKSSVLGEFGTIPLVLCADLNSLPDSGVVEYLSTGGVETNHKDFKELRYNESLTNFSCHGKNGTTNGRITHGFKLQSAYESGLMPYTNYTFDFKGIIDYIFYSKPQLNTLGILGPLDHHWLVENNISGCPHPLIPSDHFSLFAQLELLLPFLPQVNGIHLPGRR
UniProt Q9BRF8, whole entry, looked up: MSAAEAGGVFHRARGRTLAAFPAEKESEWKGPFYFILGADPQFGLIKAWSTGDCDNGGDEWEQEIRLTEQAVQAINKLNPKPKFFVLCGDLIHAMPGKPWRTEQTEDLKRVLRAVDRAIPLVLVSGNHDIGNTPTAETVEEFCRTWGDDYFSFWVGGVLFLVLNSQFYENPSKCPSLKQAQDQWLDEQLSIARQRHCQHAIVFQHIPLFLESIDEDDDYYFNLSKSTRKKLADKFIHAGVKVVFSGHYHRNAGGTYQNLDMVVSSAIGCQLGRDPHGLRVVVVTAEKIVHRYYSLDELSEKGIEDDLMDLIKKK
UniProt O14579: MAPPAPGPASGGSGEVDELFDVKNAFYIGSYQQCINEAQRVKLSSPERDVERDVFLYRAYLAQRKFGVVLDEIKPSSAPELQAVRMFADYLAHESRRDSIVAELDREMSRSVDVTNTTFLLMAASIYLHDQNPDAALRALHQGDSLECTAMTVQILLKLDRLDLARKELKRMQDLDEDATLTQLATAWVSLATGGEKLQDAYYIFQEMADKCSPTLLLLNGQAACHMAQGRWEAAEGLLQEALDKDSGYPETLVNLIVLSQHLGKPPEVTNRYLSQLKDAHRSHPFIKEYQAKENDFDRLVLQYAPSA
UniProt Q99439: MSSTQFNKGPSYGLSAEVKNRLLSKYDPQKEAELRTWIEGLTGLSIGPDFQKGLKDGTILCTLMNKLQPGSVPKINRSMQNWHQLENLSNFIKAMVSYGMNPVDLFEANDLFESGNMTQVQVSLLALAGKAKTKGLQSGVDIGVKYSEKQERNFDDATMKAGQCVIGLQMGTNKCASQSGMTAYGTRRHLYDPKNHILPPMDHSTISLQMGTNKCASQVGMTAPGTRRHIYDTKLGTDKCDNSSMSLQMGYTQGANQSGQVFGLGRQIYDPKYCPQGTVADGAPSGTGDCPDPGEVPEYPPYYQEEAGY
UniProt Q16630, whole entry, looked up: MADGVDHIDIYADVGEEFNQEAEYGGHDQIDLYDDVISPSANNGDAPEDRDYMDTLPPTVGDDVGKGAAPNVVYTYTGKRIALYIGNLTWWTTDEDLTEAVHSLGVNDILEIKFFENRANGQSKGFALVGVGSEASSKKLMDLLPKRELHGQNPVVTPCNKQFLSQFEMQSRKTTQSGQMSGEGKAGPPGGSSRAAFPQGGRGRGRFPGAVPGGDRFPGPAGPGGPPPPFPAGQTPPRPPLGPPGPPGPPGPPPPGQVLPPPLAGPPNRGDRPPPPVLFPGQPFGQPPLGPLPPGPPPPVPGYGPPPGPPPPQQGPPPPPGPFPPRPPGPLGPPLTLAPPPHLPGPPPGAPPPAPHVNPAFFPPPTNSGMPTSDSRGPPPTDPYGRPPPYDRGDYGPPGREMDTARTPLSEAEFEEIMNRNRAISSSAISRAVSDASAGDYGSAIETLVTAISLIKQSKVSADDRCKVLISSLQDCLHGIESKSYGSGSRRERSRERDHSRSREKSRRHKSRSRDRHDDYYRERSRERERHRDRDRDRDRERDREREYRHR
UniProt Q9H3G5: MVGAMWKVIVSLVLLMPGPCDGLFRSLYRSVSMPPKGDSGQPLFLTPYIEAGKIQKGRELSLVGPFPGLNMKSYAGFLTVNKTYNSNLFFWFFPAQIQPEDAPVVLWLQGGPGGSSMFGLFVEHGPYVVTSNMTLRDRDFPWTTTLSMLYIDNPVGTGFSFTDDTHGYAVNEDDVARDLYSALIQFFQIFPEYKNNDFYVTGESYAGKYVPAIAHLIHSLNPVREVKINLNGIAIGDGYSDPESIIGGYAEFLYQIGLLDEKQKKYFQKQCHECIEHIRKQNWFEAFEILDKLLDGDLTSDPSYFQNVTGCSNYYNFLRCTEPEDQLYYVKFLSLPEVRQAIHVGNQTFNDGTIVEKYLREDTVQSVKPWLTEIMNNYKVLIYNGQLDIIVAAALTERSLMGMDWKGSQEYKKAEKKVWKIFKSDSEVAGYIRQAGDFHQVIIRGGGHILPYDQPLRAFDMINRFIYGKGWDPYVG
UniProt O95628: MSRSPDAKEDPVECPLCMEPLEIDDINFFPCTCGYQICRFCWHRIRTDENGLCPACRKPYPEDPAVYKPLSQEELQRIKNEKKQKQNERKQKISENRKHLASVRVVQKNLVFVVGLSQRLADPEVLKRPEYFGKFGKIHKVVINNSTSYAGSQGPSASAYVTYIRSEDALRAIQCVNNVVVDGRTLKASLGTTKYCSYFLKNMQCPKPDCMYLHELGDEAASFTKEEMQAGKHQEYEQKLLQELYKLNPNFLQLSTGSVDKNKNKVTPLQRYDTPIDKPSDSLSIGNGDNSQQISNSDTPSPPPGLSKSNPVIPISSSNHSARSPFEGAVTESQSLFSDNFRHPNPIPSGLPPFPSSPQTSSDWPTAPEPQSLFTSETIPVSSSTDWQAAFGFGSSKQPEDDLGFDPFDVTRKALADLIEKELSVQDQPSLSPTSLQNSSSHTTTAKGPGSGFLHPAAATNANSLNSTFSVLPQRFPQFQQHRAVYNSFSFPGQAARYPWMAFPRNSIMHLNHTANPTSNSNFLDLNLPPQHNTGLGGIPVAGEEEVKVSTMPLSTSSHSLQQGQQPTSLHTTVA
UniProt Q86YQ8: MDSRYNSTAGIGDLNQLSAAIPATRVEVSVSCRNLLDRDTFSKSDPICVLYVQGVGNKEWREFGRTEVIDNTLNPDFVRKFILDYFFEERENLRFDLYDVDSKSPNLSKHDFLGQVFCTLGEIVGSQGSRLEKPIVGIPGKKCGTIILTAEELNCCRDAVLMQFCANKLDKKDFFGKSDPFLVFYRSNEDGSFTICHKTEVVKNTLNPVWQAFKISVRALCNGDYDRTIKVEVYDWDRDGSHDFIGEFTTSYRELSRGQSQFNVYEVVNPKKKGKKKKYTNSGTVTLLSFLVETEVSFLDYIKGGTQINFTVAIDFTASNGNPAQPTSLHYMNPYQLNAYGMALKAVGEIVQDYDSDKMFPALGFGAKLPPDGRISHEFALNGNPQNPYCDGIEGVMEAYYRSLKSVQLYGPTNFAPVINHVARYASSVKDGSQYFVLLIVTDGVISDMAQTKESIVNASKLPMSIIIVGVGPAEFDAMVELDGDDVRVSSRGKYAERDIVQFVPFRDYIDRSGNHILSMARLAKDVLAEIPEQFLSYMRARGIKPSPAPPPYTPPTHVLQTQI
UniProt P50416: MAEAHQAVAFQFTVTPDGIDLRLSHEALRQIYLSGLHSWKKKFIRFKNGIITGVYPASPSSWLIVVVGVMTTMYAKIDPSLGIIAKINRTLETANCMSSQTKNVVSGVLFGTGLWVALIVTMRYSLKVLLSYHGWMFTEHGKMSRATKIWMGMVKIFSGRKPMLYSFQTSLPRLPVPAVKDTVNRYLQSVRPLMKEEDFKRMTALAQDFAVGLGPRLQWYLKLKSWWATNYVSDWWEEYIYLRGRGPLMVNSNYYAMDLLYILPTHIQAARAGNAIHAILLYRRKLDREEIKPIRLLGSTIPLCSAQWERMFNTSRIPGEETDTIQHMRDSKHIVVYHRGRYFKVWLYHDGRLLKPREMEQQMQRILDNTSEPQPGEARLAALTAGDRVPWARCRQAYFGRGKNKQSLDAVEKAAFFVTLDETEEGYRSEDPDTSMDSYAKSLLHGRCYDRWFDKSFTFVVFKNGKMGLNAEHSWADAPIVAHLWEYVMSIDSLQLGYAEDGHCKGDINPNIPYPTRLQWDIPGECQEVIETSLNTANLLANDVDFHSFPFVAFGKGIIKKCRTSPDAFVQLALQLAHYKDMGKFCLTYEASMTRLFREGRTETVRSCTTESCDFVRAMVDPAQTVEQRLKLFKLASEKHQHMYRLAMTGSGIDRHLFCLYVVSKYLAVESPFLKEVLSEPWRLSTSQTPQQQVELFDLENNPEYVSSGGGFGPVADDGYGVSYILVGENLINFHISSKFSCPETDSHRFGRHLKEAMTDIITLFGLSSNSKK
UniProt P09669, whole entry, looked up: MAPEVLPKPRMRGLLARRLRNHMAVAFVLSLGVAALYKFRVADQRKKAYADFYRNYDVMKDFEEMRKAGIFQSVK

Columns and labels:
Assay in all cases: log2 fold change, soluble protein after heating vs DMSO (PISA); higher = thermal stabilisation; K562 lysate, 10 uM; active = over 0.2 and 3.5 SD of the protein, either way, in both replicates (recomputed)
[1] = compound: NCC(=O)Nc1ccc(-n2nc(C(F)(F)F)cc2-c2ccc3c(ccc4ccccc43)c2)cc1
How it was run: (§1)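 Pellets of K562 cells were dounce-homogenised in PBS pH 7.4 with 1 mM MgCl2, and the crude extract was held at 1 mg/mL protein for a 30 min treatment with 10 μM compound. Aliquots were heated for 3 min over 48°C-58°C and pooled before NP-40 was added to 0.5% at 4°C. The supernatant from 21,000xg for 90 min was quantified by TMTpro 16plex LC-MS/MS with channel sums equalised. Values are reported from duplicates as log-two fold change in thermal stability relative to solvent controls.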

vorinostat = compound: O=C(CCCCCCC(=O)Nc1ccccc1)NO [vorinostat]
How it was run: as §1

silmitasertib = compound: O=C(O)c1ccc2c(c1)nc(Nc1cccc(Cl)c1)c1ccncc12 [silmitasertib]
How it was run: as §1

[2] = compound: O=C1NC(=O)C(c2cnc3ccccn23)=C1c1cn2c3c(cc(F)cc13)CN(C(=O)N1CCCCC1)CC2
How it was run: as §1

entospletinib = compound: c1cn2cc(-c3ccc4cn[nH]c4c3)nc(Nc3ccc(N4CCOCC4)cc3)c2n1 [entospletinib]
How it was run: as §1

Row | Target | log2 fold change [1] | log2 fold change (vorinostat) | log2 fold change (silmitasertib) | log2 fold change [2] | log2 fold change (entospletinib)
1 | CPSF4 (UniProt O95639) | inactive: 0.047 | inactive: -0.192 | inactive: -0.035 | inactive: -0.056 | inactive: -0.036
2 | CNOT1 (UniProt A5YKK6) | inactive: -0.011 | inactive: -0.165 | inactive: 0.004 | inactive: -0.004 | inactive: -0.023
3 | CPSF7 isoform 3 (UniProt Q8N684) | inactive: 0.006 | inactive: -0.001 | inactive: -0.01 | inactive: -0.04 | inactive: 0.015
4 | COPZ1 isoform 4 (UniProt P61923) | inactive: -0.068 | inactive: 0.188 | inactive: -0.032 | inactive: 0.163 | inactive: -0.025
5 | CPD (UniProt O75976) | inactive: -0.005 | inactive: 0.13 | inactive: -0.028 | inactive: -0.008 | inactive: 0.005
6 | COPS7B (UniProt Q9H9Q2) | inactive: -0.023 | inactive: 0.105 | inactive: -0.056 | inactive: -0.007 | inactive: -0.042
7 | COX19 (UniProt Q49B96) | inactive: -0.059 | inactive: 0.073 | inactive: -0.043 | inactive: 0.038 | inactive: -0.08
8 | COG5 isoform 2 (UniProt Q9UP83) | inactive: -0.005 | active: -0.342 | inactive: 0.073 | inactive: -0.029 | inactive: 0.038
9 | COX6A1 (UniProt P12074) | inactive: -0.03 | inactive: 0.048 | inactive: -0.021 | inactive: 0.156 | inactive: -0.013
10 | CRADD (UniProt P78560) | inactive: -0.004 | inactive: 0.039 | inactive: 0.041 | inactive: -0.001 | inactive: -0.02
11 | CPTP (UniProt Q5TA50) | inactive: 0.044 | inactive: -0.225 | inactive: -0.019 | inactive: 0 | inactive: -0.106
12 | COX11 (UniProt Q9Y6N1) | inactive: 0.027 | inactive: 0.123 | inactive: -0.089 | inactive: 0.005 | inactive: 0
13 | CNNM3 (UniProt Q8NE01) | inactive: 0.038 | inactive: 0.123 | inactive: 0.005 | inactive: 0.007 | inactive: 0.028
14 | COPG2 (UniProt Q9UBF2) | inactive: 0.042 | inactive: 0.069 | inactive: -0.018 | inactive: 0.014 | inactive: 0.016
15 | COQ7 (UniProt Q99807) | inactive: -0.029 | inactive: 0.136 | inactive: 0.015 | inactive: -0.033 | inactive: -0.037
16 | COL14A1 (UniProt Q05707) | inactive: -0.078 | inactive: 0.2 | inactive: -0.171 | inactive: 0 | 
17 | CPSF1 (UniProt Q10570) | inactive: 0.031 | inactive: -0.147 | inactive: 0.02 | inactive: -0.026 | inactive: -0.027
18 | COX7A2L (UniProt O14548) | inactive: -0.095 | inactive: 0.119 | inactive: -0.095 | inactive: 0.02 | inactive: -0.009
19 | CNOT6 (UniProt Q9ULM6) | inactive: -0.031 | inactive: -0.122 | inactive: -0.004 | inactive: -0.046 | inactive: -0.002
20 | COMMD3 (UniProt Q9UBI1) | inactive: 0.042 | inactive: -0.166 | inactive: 0.004 | inactive: 0.028 | inactive: -0.038
21 | CPPED1 (UniProt Q9BRF8) | inactive: 0.014 | inactive: 0.053 | inactive: 0.009 | inactive: -0.041 | inactive: -0.01
22 | COA3 (UniProt Q9Y2R0) | inactive: -0.018 | inactive: 0.094 | inactive: -0.02 | inactive: -0.007 | inactive: -0.104
23 | COPE (UniProt O14579) | inactive: -0.105 | inactive: -0.002 | inactive: 0 | inactive: -0.029 | inactive: -0.044
24 | CNN2 (UniProt Q99439) | inactive: 0.009 | inactive: -0.089 | inactive: -0.035 | inactive: -0.03 | inactive: 0.04
25 | CNRIP1 (UniProt Q96F85) | inactive: 0.166 | inactive: -0.042 | inactive: -0.002 | inactive: 0.063 | 
26 | COMMD5 (UniProt Q9GZQ3) | inactive: 0.012 | inactive: 0.016 | inactive: -0.034 | inactive: -0.023 | inactive: -0.092
27 | CPNE3 (UniProt O75131) | inactive: -0.004 | inactive: -0.151 | inactive: 0.011 | inactive: 0.002 | inactive: 0

Look-ups from the entries so far.
CRADD (UniProt P78560) | log2 fold change (entospletinib): inactive: -0.02
COPE (UniProt O14579) | log2 fold change (silmitasertib): inactive: 0

Later entries:

Row | Target | log2 fold change [1] | log2 fold change (vorinostat) | log2 fold change (silmitasertib) | log2 fold change [2] | log2 fold change (entospletinib)
28 | COX20 isoform 2 (UniProt Q5RI15) | inactive: -0.016 | inactive: -0.079 | inactive: 0.011 | inactive: -0.037 | inactive: 0.026
29 | COMMD8 (UniProt Q9NX08) | inactive: -0.048 | inactive: -0.049 | inactive: 0.017 | inactive: 0.054 | inactive: -0.26
30 | CPSF6 isoform 2 (UniProt Q16630) | inactive: 0.005 | inactive: 0.073 | inactive: -0.016 | inactive: 0.012 | inactive: 0.012
31 | CPSF2 (UniProt Q9P2I0) | inactive: -0.001 | inactive: -0.123 | inactive: -0.004 | inactive: -0.01 | inactive: -0.009
32 | CNTN4 (UniProt Q8IWV2) | inactive: 0.173 | inactive: -0.026 | inactive: -0.09 | inactive: 0.274 | inactive: 0.06
33 | COA6 isoform 2 (UniProt Q5JTJ3) | inactive: -0.06 | inactive: 0.103 | inactive: -0.146 | inactive: 0.031 | inactive: 0.075
34 | CPVL (UniProt Q9H3G5) | inactive: 0.096 | inactive: 0.079 | inactive: -0.056 | inactive: -0.048 | 
35 | COLGALT1 (UniProt Q8NBJ5) | inactive: -0.007 | inactive: 0.069 | inactive: -0.006 | inactive: -0.017 | inactive: -0.014
36 | COPS8 (UniProt Q99627) | inactive: -0.115 | inactive: 0.061 | inactive: -0.034 | inactive: -0.019 | inactive: -0.05
37 | CNOT4 isoform 9 (UniProt O95628) | inactive: 0.036 | inactive: 0.098 | inactive: 0.044 | inactive: -0.031 | inactive: 0.009
38 | CNTRL (UniProt Q7Z7A1) | inactive: -0.018 | inactive: -0.092 | inactive: 0.036 | inactive: -0.008 | inactive: -0.043
39 | CPNE8 (UniProt Q86YQ8) | inactive: 0.075 | inactive: -0.054 | inactive: 0.079 | inactive: 0.018 | 
40 | CNP (UniProt P09543) | inactive: -0.017 | active: -0.298 | inactive: -0.001 | inactive: 0.059 | inactive: 0.017
41 | CNN1 (UniProt P51911) | inactive: -0.014 | inactive: -0.013 | inactive: -0.005 | inactive: -0.005 | inactive: 0.045
42 | CNNM4 (UniProt Q6P4Q7) | inactive: -0.018 | inactive: 0.074 | inactive: -0.053 | inactive: -0.007 | inactive: -0.048
43 | CPT1A (UniProt P50416) | inactive: -0.033 | active: 0.406 | inactive: -0.001 | inactive: -0.002 | inactive: -0.06
44 | COL6A5 (UniProt A8TX70) | inactive: 0.281 | inactive: 0.011 | inactive: -0.003 | inactive: 0.022 | inactive: 0.009
45 | COG6 (UniProt Q9Y2V7) | inactive: 0.021 | active: -0.254 | inactive: 0.072 | inactive: 0.09 | inactive: 0.026
46 | COPA isoform 2 (UniProt P53621) | inactive: 0.006 | inactive: -0.009 | inactive: 0.01 | inactive: -0.002 | inactive: 0.005
47 | CPS1 isoform 3 (UniProt P31327) | inactive: 0.093 | inactive: 0.049 | inactive: -0.15 | inactive: 0.027 | inactive: -0.062
48 | CNOT2 (UniProt Q9NZN8) | inactive: 0.044 | active: -0.207 | inactive: 0.015 | inactive: -0.009 | inactive: -0.015
49 | CPED1 (UniProt A4D0V7) | inactive: 0.025 | inactive: -0.05 | inactive: 0.033 | inactive: 0.031 | inactive: 0
50 | COMT (UniProt P21964) | inactive: -0.106 | active: -0.294 | inactive: 0.04 | inactive: 0.007 | inactive: 0.015
51 | COPB2 (UniProt P35606) | inactive: 0 | inactive: 0.067 | inactive: -0.016 | inactive: -0.01 | inactive: 0.007
52 | COX6C (UniProt P09669) | inactive: 0.031 | inactive: 0.11 | inactive: -0.02 | inactive: 0.003 | inactive: 0.016
53 | COPB1 (UniProt P53618) | inactive: 0.006 | inactive: 0.008 | inactive: -0.016 | inactive: -0.001 | inactive: 0.018
